Experimental data reported in patent US4801612A, “Method of inhibiting inflammatory response” (Regents of the University of California, priority 1986, dated 1989).
Part of at least one peptide drawing is inferred or uncertain, most often the ends.

Tests used:
rat hind paw [1] = assay: Heat-induced paw edema and protein extravasation (Evans blue), hind paw in 58° C. water for 5 min.; format: in vivo; conditions: for % Weight Increase / Dye μg/paw: 10 min. before exposure; for reduction of edema relative to saline / reduction of protein extravasation relative to saline: Table I, sheep CRF at 0.168 mg/kg i.v., sauvagine at 5 μg/kg i.v.
Experimental: Male albino rats weighing 200 to 280 g were anesthetized with sodium pentobarbital, 60 mg/kg i.p., and a right jugular vein cannulated for drug injections. Human/rat CRF (at various dosages described below) or saline, and Evans blue dye, 50 mg/kg, were injected intravenously 10 and 3 min., respectively, before immersion of the hind paw in 48° C. or 58° C. water for 5 min. The frequency of paw withdrawal from the water was then counted.
(§1) At the end of the exposure period, the animals were sacrificed and the dorsal skin, between the calcaneal process and phalanges, was removed from both paws, weighed, and each placed in 4 ml of formamide for 3 days at room temperature. The extracted Evans blue was quantified colorimetrically at 600 nm with readings from the untreated paw skin used as the blank values.
Protein extravasation was measured by injecting a dye into a blood compartment of the animal. The dye binds to blood proteins and when the permeability of the tissue is increased by the heat, the dye leaks into the skin of the paw. The skin of the paw was excised, the dye extracted, and the amount of dye in the skin was measured to provide an index of the skin permeability changes that accompany the heat damage. […] In a manner analogous to that described above for administration of CRF, sauvagine was administered and paws of the anesthetized recipients exposed to water at 58° C. Saline was administered to a control group. The dose of sauvagine was 5 μg/kg given i.v. 5 min. before paw immersion.
In addition, other groups of rats were administered eithe rmorphine sulfate or dexamethasone, and groups of rats were administered saline as controls.

rat hind paw [2] = assay: Heat-induced paw edema and protein extravasation, hind paw in 48° C. water for 5 min.; format: in vivo; conditions: about 57 μg/kg i.v.; 48° C. for 5 min.
Experimental: Male albino rats weighing 200 to 280 g were anesthetized with sodium pentobarbital, 60 mg/kg i.p., and a right jugular vein cannulated for drug injections. […] The frequency of paw withdrawal from the water was then counted. Leakage of Evans blue dye into the paw skin becomes visible within 2 min. At water temperatures of 58° C., the average dye content was 364±17 μg/paw for rats receiving saline.
as §1
FIG. 3 illustrates the inhibition by CRF of heat-induced tissue edema, as measured by changes in skin weight. When the paw of an untreated, anesthetized rat is placed in warm water (48° C.) for 5 min., the paw swells and this paw edema can be measured simply by weighing the heated paw skin and comparing its weight to the contralateral, unheated paw skin. If just saline (that is, isotonic salt water) is injected as the control procedure, the percent increase in weight (with respect to unheated paw) is 72%.

rat hind paw [3] = assay: ED50 for inhibiting Evans blue leakage into the skin of the heated paw (i.d. versus i.v.); format: in vivo
rat trachea = assay: Formaldehyde vapor (1% for 10 min.) induced trachea edema and protein extravasation; format: in vivo; conditions: 28.4 to 113.6 μg/kg i.v. (6-24 nmol/kg i.v.)
rat saphenous nerve [4] = conditions: intravenous injections of microgram per animal doses; Kiang and Wei 1985; cited from earlier work
rat hind paw [5] = assay: Frequency of paw withdrawal from warm water in anesthetized rats; format: in vivo
rat saphenous nerve [6] = assay: Neurogenic plasma extravasation (NPE) by antidromic stimulation of the rat saphenous nerve; format: in vivo; conditions: 6 nmol/kg i.v.
mice = assay: 2-phenyl-1,4-benzoquinone (PBQ)-induced writhing; format: in vivo; conditions: i.v. 15 min. before i.p. PBQ
[7] = 6 nmole/kg i.v., 58° C. for 5 min.
[8] = 0.112 mg/kg i.v. 10 min. before, 58° C. water for 5 min.

CC[C@H](C)[C@H](NC(=O)[C@H](CC(=O)O)NC(=O)[C@H](CC(C)C)NC(=O)[C@H](CC(C)C)NC(=O)[C@H](CCCCN)NC(=O)[C@H](CCCNC(=N)N)NC(=O)[C@H](CC(N)=O)NC(=O)[C@H](CO)NC(=O)[C@H](Cc1c[nH]cn1)NC(=O)[C@H](C)NC(=O)[C@H](CCC(N)=O)NC(=O)[C@H](CCC(N)=O)NC(=O)[C@H](C)NC(=O)[C@H](CC(C)C)NC(=O)[C@H](CCC(N)=O)NC(=O)[C@H](CC(=O)O)NC(=O)[C@H](C)NC(=O)[C@H](CCCCN)NC(=O)[C@@H](NC(=O)[C@H](CCSC)NC(=O)[C@H](CCC(=O)O)NC(=O)[C@H](CC(C)C)NC(=O)[C@@H](NC(=O)[C@H](CCC(=O)O)NC(=O)[C@H](CCCNC(=N)N)NC(=O)[C@H](CC(C)C)NC(=O)[C@H](CC(C)C)NC(=O)[C@H](Cc1c[nH]cn1)NC(=O)[C@H](Cc1ccccc1)NC(=O)[C@@H](NC(=O)[C@H](CC(C)C)NC(=O)[C@H](CC(=O)O)NC(=O)[C@H](CC(C)C)NC(=O)[C@H](CO)NC(=O)[C@@H](NC(=O)[C@@H]1CCCN1C(=O)[C@@H]1CCCN1C(=O)[C@H](CCC(=O)O)NC(=O)[C@H](CCC(N)=O)NC(=O)[C@@H](N)CO)[C@@H](C)CC)[C@@H](C)O)C(C)C)[C@@H](C)O)C(=O)N[C@@H](C)C(N)=O [oCRF]
% Weight Increase (rat hind paw [1]; 0.028 mg/kg i.v., 58° C.): 114 ± 10%
Dye μg/paw (rat hind paw [1]; 0.028 mg/kg i.v., 58° C.): 236 ± 20 μg/paw
% Weight Increase (rat hind paw [1]; 0.168 mg/kg i.v., 58° C.): 54 ± 5%
Dye μg/paw (rat hind paw [1]; 0.168 mg/kg i.v., 58° C.): 102 ± 11 μg/paw
reduction of edema relative to saline (rat hind paw [1]; 58° C.): reduced edema by about one-third
reduction of protein extravasation relative to saline (rat hind paw [1]; 58° C.): protein extravasation by over one-third

CC[C@H](C)[C@H](NC(=O)[C@@H](NC(=O)[C@H](CCC(=O)O)NC(=O)[C@H](CCSC)NC(=O)[C@H](CC(C)C)NC(=O)[C@H](CCCCN)NC(=O)[C@H](CCCNC(=N)N)NC(=O)[C@H](CC(N)=O)NC(=O)[C@H](CO)NC(=O)[C@H](Cc1c[nH]cn1)NC(=O)[C@H](C)NC(=O)[C@H](CCC(N)=O)NC(=O)[C@H](CCC(N)=O)NC(=O)[C@H](C)NC(=O)[C@H](CC(C)C)NC(=O)[C@H](CCC(N)=O)NC(=O)[C@H](CCC(=O)O)NC(=O)[C@H](C)NC(=O)[C@H](CCCNC(=N)N)NC(=O)[C@H](C)NC(=O)[C@H](CCSC)NC(=O)[C@H](CCC(=O)O)NC(=O)[C@H](CC(C)C)NC(=O)[C@@H](NC(=O)[C@H](CCC(=O)O)NC(=O)[C@H](CCCNC(=N)N)NC(=O)[C@H](CC(C)C)NC(=O)[C@H](CC(C)C)NC(=O)[C@H](Cc1c[nH]cn1)NC(=O)[C@H](Cc1ccccc1)NC(=O)[C@@H](NC(=O)[C@H](CC(C)C)NC(=O)[C@H](CC(=O)O)NC(=O)[C@H](CC(C)C)NC(=O)[C@H](CO)NC(=O)[C@@H](NC(=O)[C@@H]1CCCN1C(=O)[C@@H]1CCCN1C(=O)[C@H](CCC(=O)O)NC(=O)[C@H](CCC(=O)O)NC(=O)[C@@H](N)CO)[C@@H](C)CC)[C@@H](C)O)C(C)C)[C@@H](C)CC)C(N)=O [rCRF, Corticotropin Releasing Factor]
percent increase in weight with respect to unheated paw, FIG. 3 (rat hind paw [2]): about 10%
median effective dose (ED50) and 95% confidence limits for inhibiting Evans blue leakage into the skin of the paw (rat hind paw [3]; i.d. into dorsal skin of hind paw): 0.17 (0.07-0.40) μg/rat
median effective dose (ED50) and 95% confidence limits for inhibiting Evans blue leakage into the skin of the paw (rat hind paw [3]; i.v.): 3.7 (1.9-7.4) μg/rat
inhibition of trachea edema (trachea weight), FIG. 4 (rat trachea): inhibited the edema
inhibition of trachea protein extravasation (Evans blue dye), FIG. 5 (rat trachea): inhibited the edema and protein extravasation of the trachea
edema relative to control, FIG. 2 (rat hind paw [1]; [7]): less than half that of the control
edema, increase in weight over unheated hind paw, FIG. 2 (rat hind paw [1]; [7]): 83+9%
protein extravasation, increase in dye/paw over unheated hind paw, FIG. 2 (rat hind paw [1]; [7]): 127 ±16 μg/paw
% Weight Increase (rat hind paw [1]; 0.028 mg/kg i.v., 58° C.): 83 ± 8%
Dye μg/paw (rat hind paw [1]; 0.028 mg/kg i.v., 58° C.): 127 ± 16 μg/paw
paw swelling, FIG. 1 (rat hind paw [1]; [8]): substantially no swelling
protein extravasation (blue color of paw), FIG. 1 (rat hind paw [1]; [8]): substantially no protein extravasation
% Weight Increase (rat hind paw [1]; 0.112 mg/kg i.v., 58° C.): 67 ± 8%
Dye μg/paw (rat hind paw [1]; 0.112 mg/kg i.v., 58° C.): 120 ± 17 μg/paw
reduction of edema relative to saline (rat hind paw [1]; 58° C.): reduced edema by about half
reduction of protein extravasation relative to saline (rat hind paw [1]; 58° C.): reduced protein extravasation by about one-third
inhibition of protein extravasation / dye leakage (in words) (rat hind paw [1]; 58° C., doses of Table I): reduced the degree of dye leakage into the paw
inhibition of NPE (rat saphenous nerve [4]): inhibit the neurogenic plasma extravasation
paw withdrawal frequency from the warm water (rat hind paw [5]): reduces the paw withdrawal frequency
inhibition of NPE in adrenalectomized animals (rat saphenous nerve [6]; adrenalectomized rats): also inhibited NPE
inhibitory action in hypophysectomized animals (rat saphenous nerve [6]; hypophysectomized rats): still exerted its inhibitory action
ED50 and 95% confidence limits for inhibiting the writhing response to PBQ (mice): 5.84 (2.8-16.56) nmol/kg
